Source: PubChem BioAssay AID1487 (National Center for Advancing Translational Sciences (NCATS), 2009)
About 25 (0.01%) of roughly 200,000 compounds were called active. The inconclusive results got no clear call from the source; some entries with a clear call stand among them for comparison. Calls follow the shape of the dose curve; as a rule, active = well fitted inhibition curve with a large enough effect in the signal ratio, with a control signal flat (not every such curve was filed as active); inconclusive = small, poorly fitted or top-dose-only effect, or effect the other way, or a change in a side signal; inactive = flat fitted curve, though single readings scatter; the % refers to the signal ratio. Potencies beside an inconclusive call are fits to weak or partial responses and may not hold up.

Assay: qHTS Assay for Modulators of Lamin A Splicing
Conditions: HeLa LMNA splicing GFP/RFP minigene ratio, 48 h; ratio change, negative = inhibition: at 46.1 µM (top of the series) unless noted
How it was run: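 S3 HeLa stable clones carrying a lamin A-EGFP splicing minigene plus DsRed2 were seeded at 600 cells/well in Opti-MEM with 2% FBS, pin-dosed and incubated 48 h at 37°C. Acumen cytometry (488 nm) gave the GFP/RFP total-intensity ratio.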
% is scaled to controls: 0 for no effect and ±100 for the full control effect; potency is read from the fitted curve at half-maximal effect.

| SMILES | ratio change, negative = inhibition | Potency |
| --- | --- | --- |
| CCCCCn1c(=O)[nH]c2cc(C(=O)NCCCN(C)Cc3ccccc3)ccc2c1=O | inconclusive: -28.6% [at 46 µM] | – |
| CN1CCN(c2ccc(CNS(=O)(=O)c3ccccc3)cc2)CC1 | inconclusive: 10.4% [at 46 µM] | – |
| O=C(CSc1nnc(Cn2nnc3ccccc32)o1)N(Cc1ccc(F)cc1)c1ccccc1 | inconclusive: -30.3% | – |
| COC(=O)c1ccccc1OCCCOc1ccc(C)cc1OC | inconclusive: 146% | – |
| CCOC(=O)Cc1csc(/C(=N/O)C(N)=O)n1 | inconclusive: 17.2% | – |
| c1ccc(Oc2nc(NCc3ccco3)nc(NCc3ccco3)n2)cc1 | inconclusive: 37.5% | – |
| Cc1cc(C)nc(SCC(=O)Nc2ccccc2[N+](=O)[O-])n1 | inactive: 15.8% | – |
| COc1cc(CNC(=O)c2ccc3c(c2)N(C)C(=O)C2CCCCN32)cc(OC)c1OC (centres undefined) | inconclusive: -24.2% [at 46 µM] | – |
| O=C(CSc1ncnc2[nH]ncc12)Nc1nc(-c2ccc(F)c(F)c2)cs1 | – | inconclusive: 20 µM [inhibitor, single point] |
| Cc1nc2sc(C(c3ccco3)N3CCC(Cc4ccccc4)CC3)c(O)n2n1 (centres undefined) | inconclusive: 5.84% | – |
| Cc1c(NC(=S)NC(=O)c2sc3ccccc3c2Cl)cccc1C(=O)O | inactive: -17% [at 46 µM] | – |
| Nc1c(C(=O)Nc2nc3ccccc3s2)sc2nc(-c3cccs3)ccc12 | inconclusive: 1.99% | – |
| Cc1cc(C(=O)CSc2nc(N)cc(=O)[nH]2)c(C)n1-c1ccc(OC(F)F)cc1 | inconclusive: -21.5% [at 46 µM] | – |
| COc1ccc(-c2nnc(SCC(=O)Nc3cc(S(=O)(=O)N4CCCCC4)ccc3Cl)n2N)cc1 | – | inconclusive: 35.5 µM [fluorescent, single point] |
| O=S(=O)(c1ccc2nc(SCc3ccc(Cl)cc3)[nH]c2c1)N1CCOCC1 | – | inconclusive: 22.4 µM [fluorescent, single point] |
| C[C@H](NC(=O)N1CCc2nc(-c3ccccc3)c3c(c2C1)CO[C@@H](C)C3)c1ccccc1 | inconclusive: 1.31% [at 9.22 µM] | – |
| CC(C)(CO)[C@@H](O)C(=O)NCCCO | inconclusive: 1.33% | – |
| CCN(CC)S(=O)(=O)c1cccc(C(=O)N/N=C(\C)c2cccs2)c1 | inconclusive: -15.8% [at 46 µM] | – |
| O=C(c1cc(COc2ccc3ncccc3c2)on1)N1CCCCCC1 | inconclusive: 22.6% [at 46 µM] | – |
| O=C(C1CC1)N1CCN=C1SCc1cccc(C(F)(F)F)c1 | inconclusive: -3.55% | – |

Whole records, looked up by structure.
Cc1nc2sc(C(c3ccco3)N3CCC(Cc4ccccc4)CC3)c(O)n2n1 (centres undefined) as listed: ratio change, negative = inhibition: inconclusive: 5.84%
COc1cc(CNC(=O)c2ccc3c(c2)N(C)C(=O)C2CCCCN32)cc(OC)c1OC (centres undefined) as listed: ratio change, negative = inhibition: inconclusive: -24.2% [at 46 µM]
CC(C)(CO)[C@@H](O)C(=O)NCCCO as listed: ratio change, negative = inhibition: inconclusive: 1.33%

(continued)

| SMILES | ratio change, negative = inhibition | Potency |
| --- | --- | --- |
| CC(=O)Nc1ccc(N=C(C2=C(O)c3ccccc3C2=O)c2ccccc2)cc1 | – | inconclusive: 12.6 µM [falling, partial curve] |
| CCCC(=O)c1ccc(N2CCN(C(=O)OCC)CC2)c(F)c1 | inconclusive: 4.75% | – |
| Cc1cc(C)n2cc(CSc3nnnn3-c3ccccc3)nc2n1 | inactive: -0.572% | – |
| O=C(CSc1ccc(-c2nc3ccccc3[nH]2)cn1)Nc1ccc(S(=O)(=O)NC2CC2)cc1 | inactive: -27.5% | – |
| Cn1c(SCC(=O)N/N=C/c2ccc([N+](=O)[O-])s2)nnc1-c1ccc(Cl)cc1 | inconclusive: -41.7% | – |
| CCN(CC)S(=O)(=O)c1ccc2nc(NC(=O)c3cccnc3)sc2c1 | inactive: -2.58% [at 46 µM] | – |
| O=C(c1ccc(Cl)cc1)N1CCC(c2ccncc2)CC1 | inconclusive: -5.53% [at 46 µM] | – |
| Cc1cc(C)n(-c2cc(N3CCN(C(=O)c4ccc(C(C)(C)C)cc4)CC3)ccc2[N+](=O)[O-])n1 | inconclusive: -13.5% | – |
| O=C(NCCO)c1ccc2[nH]c3c(c2c1)CCCC3 | inactive: -3.09% | – |
| COc1ccc(N2CCN(c3oc(-c4ccc(OC)c(OC)c4)nc3C#N)CC2)cc1 | – | inconclusive: 20 µM [falling, single point] |
| CSc1sc(C(=O)NC(=O)NCc2cccnc2)c(C)c1-c1ccon1 | inconclusive: 2.74% [at 46 µM] | – |
| CCOc1ccc(NC(C)C(=O)N/N=C/c2ccc([N+](=O)[O-])cc2)cc1 (centres undefined) | inconclusive: -8.55% [at 46 µM] | – |
| COCc1c(C(=O)OC/C(O)=C(\C#N)c2nc3ccccc3[nH]2)oc2ccccc12 | inconclusive: 2.25% [at 46 µM] | – |
| Cc1ccccc1NC(=O)Cn1c(SCC(=O)Nc2ccc(F)cc2)nc2ccccc21 | inconclusive: 163% [at 46 µM] | – |
| CC(C)CN(C(=O)c1cccc(S(=O)(=O)N2CCCCC2)c1)C1CCS(=O)(=O)C1 (centres undefined) | inconclusive: -8.85% [at 46 µM] | – |
| COCCNc1nc(-c2c(C)noc2C)nc2ccccc12 | inconclusive: -25% | – |
| O=C(COc1ccccc1Cl)OCc1cc(=O)n2nc(-c3cccs3)sc2n1 | inactive: -20.1% [at 46 µM] | – |
| Cc1ccccc1OCCNC(=O)c1ccc2ccccc2n1 | inactive: -1.41% | – |
| COc1ccc(/C=C/C(=O)c2ccc3c(c2)OCCO3)cc1[N+](=O)[O-] | – | inconclusive: 35.5 µM [rising, single point] |
